From the supplement of paper PMC10849652
Some of the results follow.

The chains behind the UniProt entries cited, without tags or fusion partners. Where a name states a change or a piece, a line headed by the entry shows the natural chain unless it says otherwise.
UniProt Q15050: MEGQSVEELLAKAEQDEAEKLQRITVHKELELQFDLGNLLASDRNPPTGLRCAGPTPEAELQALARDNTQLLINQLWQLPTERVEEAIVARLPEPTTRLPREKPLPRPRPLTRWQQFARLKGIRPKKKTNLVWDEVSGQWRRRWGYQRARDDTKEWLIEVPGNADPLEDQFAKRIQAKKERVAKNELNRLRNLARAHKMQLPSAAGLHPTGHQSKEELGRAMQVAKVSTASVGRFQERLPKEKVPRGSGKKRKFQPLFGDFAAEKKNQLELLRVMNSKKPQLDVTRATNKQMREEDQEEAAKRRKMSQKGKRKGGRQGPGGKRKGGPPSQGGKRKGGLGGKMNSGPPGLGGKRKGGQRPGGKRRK
UniProt P28702: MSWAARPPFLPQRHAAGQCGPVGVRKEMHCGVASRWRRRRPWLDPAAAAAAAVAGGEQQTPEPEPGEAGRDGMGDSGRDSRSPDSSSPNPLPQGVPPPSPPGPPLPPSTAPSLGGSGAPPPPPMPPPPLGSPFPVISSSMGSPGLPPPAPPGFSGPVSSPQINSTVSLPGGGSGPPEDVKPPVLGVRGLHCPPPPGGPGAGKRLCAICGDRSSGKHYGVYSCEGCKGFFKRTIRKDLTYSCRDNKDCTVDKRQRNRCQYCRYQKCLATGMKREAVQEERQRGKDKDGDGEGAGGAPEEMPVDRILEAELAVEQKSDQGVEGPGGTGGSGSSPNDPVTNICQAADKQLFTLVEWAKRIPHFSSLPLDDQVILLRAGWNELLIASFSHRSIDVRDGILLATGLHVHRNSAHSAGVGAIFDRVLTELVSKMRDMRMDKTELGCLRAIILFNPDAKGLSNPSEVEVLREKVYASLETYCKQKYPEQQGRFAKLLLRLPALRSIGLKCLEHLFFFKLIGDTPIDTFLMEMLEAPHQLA
UniProt P78346: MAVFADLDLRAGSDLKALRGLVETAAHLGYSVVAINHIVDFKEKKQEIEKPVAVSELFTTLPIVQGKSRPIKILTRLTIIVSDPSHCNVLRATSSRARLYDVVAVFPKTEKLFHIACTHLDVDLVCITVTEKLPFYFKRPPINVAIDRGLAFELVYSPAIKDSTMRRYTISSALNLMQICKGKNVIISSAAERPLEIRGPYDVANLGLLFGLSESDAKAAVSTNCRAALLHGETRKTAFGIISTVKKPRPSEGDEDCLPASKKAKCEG
UniProt P31350, whole entry, looked up: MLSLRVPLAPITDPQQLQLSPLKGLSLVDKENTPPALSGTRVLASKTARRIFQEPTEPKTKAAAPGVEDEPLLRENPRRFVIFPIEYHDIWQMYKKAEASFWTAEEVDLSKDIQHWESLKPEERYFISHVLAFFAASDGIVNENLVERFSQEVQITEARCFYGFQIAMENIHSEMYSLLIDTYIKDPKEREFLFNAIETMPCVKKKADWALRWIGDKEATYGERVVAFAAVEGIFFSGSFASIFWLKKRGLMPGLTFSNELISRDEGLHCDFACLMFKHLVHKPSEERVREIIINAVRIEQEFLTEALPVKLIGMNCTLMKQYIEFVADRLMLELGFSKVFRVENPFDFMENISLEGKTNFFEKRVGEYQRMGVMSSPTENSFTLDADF
UniProt O43159: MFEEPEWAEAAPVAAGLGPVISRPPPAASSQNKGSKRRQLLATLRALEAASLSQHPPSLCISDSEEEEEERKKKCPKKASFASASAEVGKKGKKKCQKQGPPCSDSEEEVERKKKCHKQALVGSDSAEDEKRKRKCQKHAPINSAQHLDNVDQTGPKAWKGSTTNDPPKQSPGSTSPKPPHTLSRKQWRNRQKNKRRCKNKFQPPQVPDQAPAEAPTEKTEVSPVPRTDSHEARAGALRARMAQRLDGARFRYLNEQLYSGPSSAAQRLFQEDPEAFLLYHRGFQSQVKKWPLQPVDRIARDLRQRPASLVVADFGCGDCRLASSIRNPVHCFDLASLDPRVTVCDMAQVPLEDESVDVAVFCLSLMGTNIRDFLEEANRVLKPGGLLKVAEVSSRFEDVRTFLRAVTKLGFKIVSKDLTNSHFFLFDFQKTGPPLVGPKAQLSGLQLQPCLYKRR
UniProt Q9NQC3: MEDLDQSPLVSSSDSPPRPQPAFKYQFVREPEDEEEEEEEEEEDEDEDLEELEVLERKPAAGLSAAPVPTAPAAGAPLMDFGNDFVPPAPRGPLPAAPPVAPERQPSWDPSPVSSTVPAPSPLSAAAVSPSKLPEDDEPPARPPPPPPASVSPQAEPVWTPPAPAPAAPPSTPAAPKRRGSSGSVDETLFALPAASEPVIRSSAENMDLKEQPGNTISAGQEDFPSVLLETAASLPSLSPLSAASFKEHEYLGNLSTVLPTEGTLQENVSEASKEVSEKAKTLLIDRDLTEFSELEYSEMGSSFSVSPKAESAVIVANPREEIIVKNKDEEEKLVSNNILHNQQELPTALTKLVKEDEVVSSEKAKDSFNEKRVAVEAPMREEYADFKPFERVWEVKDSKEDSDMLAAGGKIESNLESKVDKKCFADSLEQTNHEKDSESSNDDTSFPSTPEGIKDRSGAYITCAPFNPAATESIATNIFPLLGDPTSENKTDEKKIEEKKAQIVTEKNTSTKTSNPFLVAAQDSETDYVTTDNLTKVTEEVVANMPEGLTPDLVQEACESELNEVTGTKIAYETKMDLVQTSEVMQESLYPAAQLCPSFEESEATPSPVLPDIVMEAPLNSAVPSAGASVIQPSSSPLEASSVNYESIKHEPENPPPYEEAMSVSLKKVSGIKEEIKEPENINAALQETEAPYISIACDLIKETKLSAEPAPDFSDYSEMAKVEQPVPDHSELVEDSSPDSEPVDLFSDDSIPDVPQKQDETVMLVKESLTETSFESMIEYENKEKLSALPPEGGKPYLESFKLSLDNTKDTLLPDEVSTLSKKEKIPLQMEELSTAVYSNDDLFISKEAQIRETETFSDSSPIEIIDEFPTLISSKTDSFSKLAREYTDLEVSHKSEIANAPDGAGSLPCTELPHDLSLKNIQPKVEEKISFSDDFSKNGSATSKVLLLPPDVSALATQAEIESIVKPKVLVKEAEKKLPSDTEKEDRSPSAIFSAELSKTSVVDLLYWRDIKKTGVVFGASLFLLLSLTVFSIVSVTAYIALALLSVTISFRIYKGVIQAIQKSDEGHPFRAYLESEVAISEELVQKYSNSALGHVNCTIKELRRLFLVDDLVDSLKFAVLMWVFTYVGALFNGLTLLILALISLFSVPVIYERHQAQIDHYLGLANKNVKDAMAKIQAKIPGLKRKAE
UniProt Q9H633: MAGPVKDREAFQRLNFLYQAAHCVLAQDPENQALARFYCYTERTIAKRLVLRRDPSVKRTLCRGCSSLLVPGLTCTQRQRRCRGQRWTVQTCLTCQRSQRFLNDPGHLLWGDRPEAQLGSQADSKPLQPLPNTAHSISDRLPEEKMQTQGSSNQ
UniProt Q96S38: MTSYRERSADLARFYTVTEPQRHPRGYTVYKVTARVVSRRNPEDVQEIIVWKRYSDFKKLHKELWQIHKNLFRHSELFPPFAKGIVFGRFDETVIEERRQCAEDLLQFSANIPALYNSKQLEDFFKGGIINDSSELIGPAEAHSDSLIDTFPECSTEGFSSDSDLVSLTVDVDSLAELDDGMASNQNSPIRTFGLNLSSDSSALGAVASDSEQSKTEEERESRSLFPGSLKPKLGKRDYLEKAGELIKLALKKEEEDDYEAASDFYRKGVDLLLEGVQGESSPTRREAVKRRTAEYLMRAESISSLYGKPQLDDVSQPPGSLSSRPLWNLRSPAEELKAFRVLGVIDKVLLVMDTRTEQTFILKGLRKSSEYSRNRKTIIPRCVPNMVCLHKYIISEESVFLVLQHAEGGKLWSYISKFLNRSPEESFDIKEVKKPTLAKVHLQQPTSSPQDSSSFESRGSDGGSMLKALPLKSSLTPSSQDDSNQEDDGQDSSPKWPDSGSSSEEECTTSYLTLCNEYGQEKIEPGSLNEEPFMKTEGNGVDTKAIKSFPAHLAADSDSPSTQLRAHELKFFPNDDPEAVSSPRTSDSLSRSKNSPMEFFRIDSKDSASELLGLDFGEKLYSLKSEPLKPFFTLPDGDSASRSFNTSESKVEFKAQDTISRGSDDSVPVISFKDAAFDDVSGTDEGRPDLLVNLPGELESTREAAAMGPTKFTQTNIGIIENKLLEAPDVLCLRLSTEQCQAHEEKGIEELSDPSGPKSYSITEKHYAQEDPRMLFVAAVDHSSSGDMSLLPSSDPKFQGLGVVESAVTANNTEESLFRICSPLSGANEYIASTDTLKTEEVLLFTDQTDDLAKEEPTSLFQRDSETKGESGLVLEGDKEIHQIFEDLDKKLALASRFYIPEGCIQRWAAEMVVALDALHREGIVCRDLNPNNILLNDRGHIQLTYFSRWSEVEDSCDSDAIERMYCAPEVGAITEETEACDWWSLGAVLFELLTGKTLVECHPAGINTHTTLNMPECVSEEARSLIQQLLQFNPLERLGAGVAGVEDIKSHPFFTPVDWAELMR

Key:
Assay in all cases: log2 fold change, soluble protein after heating vs DMSO (PISA); higher = thermal stabilisation; K562 lysate, 10 uM; active = over 0.2 and 3.5 SD of the protein, either way, in both replicates (recomputed)
[1] = compound: CS(=O)(=O)CCNCc1ccc(-c2ccc3ncnc(Nc4ccc(OCc5cccc(F)c5)c(Cl)c4)c3c2)o1 [lapatinib]
Method in brief: (§1)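 A 30 min treatment with 10 μM compound was applied to crude K562 extract at 1 mg/mL protein in PBS pH 7.4 with 1 mM MgCl2. Heating for 3 min spanned 48°C-58°C, after which aliquots were pooled, adjusted to 0.5% NP-40 at 4°C and spun at 21,000xg for 90 min. TMTpro 16plex LC-MS/MS of the supernatant, with channel sums equalised, gave values recorded as log-two fold change in thermal stability against solvent controls, from duplicates.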

[2] = compound: CS(=O)(=O)N1CCN(Cc2cc3nc(-c4cccc5[nH]ncc45)nc(N4CCOCC4)c3s2)CC1 [pictilisib]
Method in brief: as §1

[3] = compound: C[C@@H](Oc1cc(-c2cnn(C3CCNCC3)c2)cnc1N)c1c(Cl)ccc(F)c1Cl [crizotinib]
Method in brief: as §1

[4] = compound: C[C@H](C1=CC=C(C=C1)C(=O)NC2=C3C=CNC3=NC=C2)N
Method in brief: as §1

[5] = compound: C[C@H](Nc1ncnc2nc[nH]c12)c1cc2cccc(Cl)c2c(=O)n1-c1ccccc1 [duvelisib]
Method in brief: as §1

[6] = compound: Cc1cc(Nc2cc(CN3CCOCC3)c3nc(C)c(Cc4ccc(Cl)cc4F)n3n2)n[nH]1 [gandotinib]
Method in brief: as §1

[7] = compound: Cc1cc(Nc2cc(N3CCN(C)CC3)nc(Sc3ccc(NC(=O)C4CC4)cc3)n2)n[nH]1 [tozasertib]
Method in brief: as §1

[8] = compound: Cc1ccc(-n2nc(C(C)(C)C)cc2NC(=O)Nc2ccc(OCCN3CCOCC3)c3ccccc23)cc1 [doramapimod]
Method in brief: as §1

[9] = compound: Cc1ccc(NC(=O)c2ccc(CN3CC[C@H](N(C)C)C3)c(C(F)(F)F)c2)cc1Nc1nccc(-c2cncnc2)n1 [bafetinib]
Method in brief: as §1

[10] = compound: Cc1cccc(CC(=O)N2CCc3c2ccc(-c2cn(C)c4ncnc(N)c24)c3F)n1
Method in brief: as §1

[11] = compound: Cc1cn(-c2cc(NC(=O)c3ccc(C)c(Nc4nccc(-c5cccnc5)n4)c3)cc(C(F)(F)F)c2)cn1 [nilotinib]
Method in brief: as §1

[12] = compound: Cc1nc(Nc2n[nH]c3c2CN(C(=O)N[C@H](CN(C)C)c2ccccc2)C3(C)C)c2sccc2n1
Method in brief: as §1

[13] = compound: Cc1nc(Nc2ncc(C(=O)Nc3c(C)cccc3Cl)s2)cc(N2CCN(CCO)CC2)n1 [dasatinib]
Method in brief: as §1

[14] = compound: Cc1ncc(-c2ccnc(Nc3ccc(S(C)(=O)=O)cc3)n2)n1C(C)C
Method in brief: as §1

[15] = compound: Cn1cc(-c2ccc3c(c2)CCN3C(=O)Cc2cccc(C(F)(F)F)c2)c2c(N)ncnc21
Method in brief: as §1

[16] = compound: Cn1cc(CNCC2CCN(c3ncc(C(=O)NO)cn3)CC2)c2ccccc21 [quisinostat]
Method in brief: as §1

[17] = compound: Cn1cncc1[C@@](N)(c1ccc(Cl)cc1)c1ccc2c(c1)c(-c1cccc(Cl)c1)cc(=O)n2C [tipifarnib]
Method in brief: as §1

[18] = compound: NC(=O)Nc1cc(-c2cccc(F)c2)sc1C(=O)N[C@H]1CCCNC1
Method in brief: as §1

[19] = compound: NC(=O)c1cnc(N[C@@H]2CCCC[C@@H]2N)nc1Nc1cccc(-n2nccn2)c1
Method in brief: as §1

[20] = compound: NC1(c2ccc(-c3nc4ccn5c(=O)[nH]nc5c4cc3-c3ccccc3)cc2)CCC1
Method in brief: as §1

Measured: log2 fold change

RPL6 (UniProt Q02878)
inactive: [1] -0.012 | [2] -0.011 | [3] 0.006 | [4] 0.014 | [5] 0.013 | [6] -0.014 | [7] -0.025 | [8] -0.015 | [9] 0.011 | [10] -0.051 | [11] 0.025 | [12] -0.026 | [13] -0.02 | [14] 0.006 | [15] 0.007 | [16] 0.013 | [17] 0.02 | [18] 0.004 | [19] -0.013 | [20] 0.021

RRS1 (UniProt Q15050)
inactive: [1] -0.016 | [2] 0 | [3] -0.091 | [4] -0.051 | [5] 0.012 | [6] -0.016 | [7] 0.044 | [8] -0.001 | [9] 0.011 | [10] 0.132 | [11] -0.009 | [12] 0.013 | [13] -0.058 | [14] 0.05 | [15] -0.039 | [16] -0.033 | [17] -0.003 | [18] 0.016 | [19] 0.007 | [20] -0.021

RXRB isoform 3 (UniProt P28702)
inactive: [1] 0.085 | [2] -0.096 | [3] -0.011 | [4] 0.046 | [5] -0.051 | [6] -0.074 | [7] 0.006 | [8] -0.091 | [9] -0.11 | [10] 0.023 | [11] 0.01 | [12] -0.038 | [13] -0.018 | [14] 0.001 | [15] 0.095 | [16] -0.038 | [17] -0.052 | [18] 0.032 | [19] -0.031 | [20] -0.199

RPS25 (UniProt P62851)
inactive: [1] -0.043 | [2] 0 | [3] -0.007 | [4] -0.027 | [5] -0.013 | [6] 0.019 | [7] 0.004 | [8] 0.003 | [9] 0.017 | [10] 0.004 | [11] 0.016 | [12] -0.045 | [13] 0.02 | [14] -0.021 | [15] -0.009 | [16] 0.042 | [17] 0.059 | [18] -0.034 | [19] 0.017 | [20] 0.023

RPP30 isoform 2 (UniProt P78346)
inactive: [1] -0.008 | [2] 0.007 | [3] 0.029 | [4] 0.029 | [5] 0.034 | [6] 0.039 | [7] -0.01 | [8] -0.019 | [9] 0.026 | [10] -0.022 | [11] -0.015 | [12] 0.013 | [13] 0.042 | [14] 0.019 | [15] -0.023 | [16] 0.01 | [17] -0.009 | [18] -0.003 | [19] 0.022 | [20] 0.011

RPL38 (UniProt P63173)
inactive: [1] 0.006 | [2] 0.014 | [3] -0.006 | [4] 0.042 | [5] -0.02 | [6] -0.058 | [7] -0.011 | [8] -0.092 | [9] 0 | [10] -0.017 | [11] -0.007 | [12] -0.053 | [13] -0.003 | [14] -0.004 | [15] 0.036 | [16] -0.007 | [17] 0.005 | [18] 0.012 | [19] -0.001 | [20] 0.037

RRM2 isoform 2 (UniProt P31350)
inactive: [1] 0.041 | [2] 0.007 | [3] 0.035 | [4] 0.006 | [5] -0.009 | [6] 0.099 | [7] -0.059 | [8] 0.085 | [9] 0.01 | [10] -0.097 | [11] -0.019 | [12] -0.016 | [13] 0.045 | [14] 0.011 | [15] 0.009 | [16] -0.023 | [17] -0.002 | [18] -0.03 | [19] -0.019 | [20] 0.043

RPS4X (UniProt P62701)
inactive: [1] -0.006 | [2] 0.009 | [3] -0.024 | [4] 0.209 | [5] 0.012 | [6] -0.038 | [7] -0.018 | [8] -0.01 | [9] -0.008 | [10] -0.04 | [11] 0.01 | [12] -0.023 | [13] 0.025 | [14] -0.002 | [15] -0.003 | [16] 0.016 | [17] 0.01 | [18] -0.001 | [19] -0.034 | [20] 0.008

RPL37 (UniProt P61927)
inactive: [1] 0.017 | [2] 0 | [3] 0.122 | [4] 0.017 | [5] 0 | [6] -0.016 | [7] -0.048 | [8] -0.162 | [9] -0.037 | [10] 0.024 | [11] -0.004 | [12] 0.014 | [13] -0.03 | [14] 0.044 | [15] -0.024 | [16] 0.15 | [17] 0.011 | [18] -0.063 | [19] -0.005 | [20] -0.019

RPS2 (UniProt P15880)
inactive: [1] -0.012 | [2] 0.014 | [3] -0.001 | [4] 0.004 | [5] 0.006 | [6] 0.006 | [7] -0.046 | [8] 0.006 | [9] -0.003 | [10] -0.02 | [11] 0.015 | [12] -0.029 | [13] -0.001 | [14] 0.001 | [15] -0.003 | [16] 0.018 | [17] 0.029 | [18] -0.015 | [19] 0.002 | [20] 0.007

RRP8 (UniProt O43159)
inactive: [1] 0.001 | [2] 0.009 | [3] -0.024 | [4] -0.063 | [5] 0.055 | [6] -0.146 | [7] 0.007 | [8] 0.043 | [9] -0.04 | [10] -0.014 | [11] 0.054 | [12] -0.065 | [13] -0.015 | [14] -0.019 | [15] -0.038 | [16] -0.141 | [17] -0.001 | [18] 0.045 | [19] 0.02 | [20] 0.019

RPS20 isoform 2 (UniProt P60866)
inactive: [1] -0.034 | [2] -0.141 | [3] -0.027 | [4] -0.093 | [5] 0.024 | [6] 0.031 | [7] 0.012 | [8] 0 | [9] -0.081 | [10] 0.015 | [11] -0.012 | [12] -0.031 | [13] -0.059 | [14] 0.008 | [15] 0.012 | [16] -0.107 | [17] 0.027 | [18] -0.025 | [19] -0.021 | [20] 0.009

2 neighbouring records from above, for reference:
RPL6 (UniProt Q02878)
inactive: [1] -0.012 | [2] -0.011 | [3] 0.006 | [4] 0.014 | [5] 0.013 | [6] -0.014 | [7] -0.025 | [8] -0.015 | [9] 0.011 | [10] -0.051 | [11] 0.025 | [12] -0.026 | [13] -0.02 | [14] 0.006 | [15] 0.007 | [16] 0.013 | [17] 0.02 | [18] 0.004 | [19] -0.013 | [20] 0.021

RRS1 (UniProt Q15050)
inactive: [1] -0.016 | [2] 0 | [3] -0.091 | [4] -0.051 | [5] 0.012 | [6] -0.016 | [7] 0.044 | [8] -0.001 | [9] 0.011 | [10] 0.132 | [11] -0.009 | [12] 0.013 | [13] -0.058 | [14] 0.05 | [15] -0.039 | [16] -0.033 | [17] -0.003 | [18] 0.016 | [19] 0.007 | [20] -0.021

Further records

RTN4 isoform 5 (UniProt Q9NQC3)
inactive: [1] 0.029 | [2] 0.001 | [3] -0.117 | [4] 0.044 | [5] 0.011 | [6] 0.176 | [7] -0.025 | [8] 0.009 | [9] -0.067 | [10] 0.039 | [11] 0.047 | [12] -0.009 | [13] -0.137 | [14] -0.093 | [15] -0.043 | [16] 0.173 | [17] -0.014 | [18] 0.056 | [19] 0.016 | [20] 0.013

RPS16 (UniProt P62249)
inactive: [1] 0.001 | [2] 0.016 | [3] 0.029 | [4] 0.14 | [5] 0.022 | [6] -0.084 | [7] 0.041 | [8] -0.005 | [9] 0.041 | [10] -0.071 | [11] -0.04 | [12] 0.002 | [13] -0.023 | [14] -0.096 | [15] 0.011 | [16] 0.077 | [17] 0.033 | [18] -0.023 | [19] -0.006 | [20] 0.038

RPP21 isoform 4 (UniProt Q9H633)
inactive: [1] 0.006 | [2] 0 | [3] -0.049 | [4] -0.124 | [5] 0.115 | [6] 0.06 | [7] -0.005 | [8] -0.049 | [9] 0.015 | [10] 0.036 | [11] 0.158 | [12] -0.237 | [13] -0.051 | [14] 0.038 | [15] 0.091 | [16] -0.158 | [17] 0.079 | [18] -0.025 | [19] 0.018 | [20] 0.032

RPS6KC1 (UniProt Q96S38)
inactive: [1] -0.05 | [2] -0.014 | [3] 0.019 | [4] -0.03 | [5] 0.01 | [6] -0.022 | [7] 0.002 | [8] 0.056 | [9] -0.065 | [10] 0.038 | [11] -0.012 | [12] 0.006 | [13] -0.01 | [14] -0.019 | [15] 0.056 | [16] -0.037 | [17] -0.032 | [18] -0.026 | [19] 0.029 | [20] -0.061
